From the supplement of paper PMC10735217
Counter-ions that a name gives are not always drawn. This is one part of the list. Single values are uncertain here, since repeats match poorly.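 In a drug-repurposing library screen, luminescence reads luciferase driven by eight TEAD-binding elements, stably integrated into human kidney-derived cells. Compounds scoring over five robust Z scores above the plate mean are called hits.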

Test system: HEK293A TEAD-LUC reporter
Test: TEAD-luciferase reporter activity (YAP activation), robust Z score vs plate; higher = stronger YAP/TEAD activation
Conditions: 24 h

| SMILES | TEAD-luciferase reporter activity (compound concentration: 200 nM) | TEAD-luciferase reporter activity (compound concentration: 10 uM) | TEAD-luciferase reporter activity (compound concentration: 2 uM) |
| --- | --- | --- | --- |
| CCN1CCN(C(=O)N[C@@H](C(=O)N[C@@H]2C(=O)N3[C@@H]2SC(C)(C)[C@@H]3C(=O)[O-])c2ccccc2)C(=O)C1=O | inactive: -1.12 | inactive: 0.925 | – |
| CCN1CCN(C(=O)N[C@@H](C(=O)N[C@@H]2C(=O)N3[C@@H]2SC(C)(C)[C@@H]3C(=O)[O-])c2ccccc2)C(=O)C1=O [Piperacillin sodium] | – | – | inactive: 2.02 |
| C=CCOc1ccccc1OCC(O)CNC1CCC(N2CCNC2=O)CC1 (stereo unspecified) | inactive: 0.401 | inactive: 1.57 | inactive: -0.668 |
| NC(=O)N1c2ccccc2C=Cc2ccccc21 [Carbamazepine298-46-4] | inactive: -0.967 | inactive: 1.14 | – |
| NC(=O)N1c2ccccc2C=Cc2ccccc21 [carbamazepine, Elan PharmaZome] | – | – | inactive: -0.572 |
| Cn1cc(NC(=O)c2cc(NC(=O)c3ccc(/C=C/c4cnc5ccccc5c4)cc3)cn2C)cc1C(=O)NCCN1CCOCC1 | inactive: 2.4 | active: 14.7 | inactive: 2.6 |
| CNC(=O)[C@@H](CCC(=O)OC)NC(=O)[C@@H](CC(C)C)C(CSc1ccc(O)cc1)C(=O)NO (stereo partly specified) | inactive: -0.428 | inactive: 0.385 | inactive: -0.708 |
| CCn1ccc(NS(=O)(=O)c2ccc(N)cc2)nc1=O | inactive: 0.729 | inactive: 1.43 | inactive: 0.694 |
| Cc1ccc(OC[C@H](O)[C@H](C)NC(C)C)c2c1CCC2 | inactive: 0.451 | inactive: -0.251 | inactive: 0.573 |
| CC(NCCC(c1ccccc1)c1ccccc1)c1ccccc1 (stereo unspecified) [Fendiline hydrochloride] | inactive: 0.518 | inactive: 2.77 | – |
| CC(NCCC(c1ccccc1)c1ccccc1)c1ccccc1 (stereo unspecified) [Fendiline (hydrochloride)] | – | – | inactive: -0.829 |
| O=C(O)COCCN1CCN(C(c2ccc(F)cc2)c2ccc(F)cc2)CC1 [Efletirizine] | inactive: 1.98 | active: 6.2 | inactive: -0.709 |
| CC(=O)O[C@@H]1[C@H](OC(C)=O)[C@@H](CO)O[C@H]1n1c(=O)sc2cnc(N)nc21 | inactive: -1.62 | inactive: 0.698 | inactive: -1.37 |
| NCCNC(Cc1c[nH]cn1)C(=O)O (stereo unspecified) | inactive: 3.54 | inactive: -0.501 | inactive: 0.245 |
| CCOc1ccc(NS(=O)(=O)c2ccc(N)cc2)nn1 [Sulfaethoxypyridazine] | inactive: 0.334 | inactive: 0.319 | inactive: -1.19 |
| O=c1cc2c(nn1-c1ccc(Cl)cc1)-c1ccccc1S(=O)CC2 (stereo unspecified) | inactive: -1.43 | active: 5.53 | inactive: 0.463 |
| NS(=O)(=O)Oc1ccc2c3c(c(=O)oc2c1)CCCCC3 | inactive: -0.234 | inactive: -0.0894 | – |
| NS(=O)(=O)Oc1ccc2c3c(c(=O)oc2c1)CCCCC3 [Irosustat] | – | – | inactive: 3.68 |
| Oc1nc(O)c2cn[nH]c2n1 [Oxipurinol] | inactive: 0.825 | inactive: -1.12 | inactive: -1.05 |

Full records from above. Order of values: TEAD-luciferase reporter activity (compound concentration: 200 nM) | TEAD-luciferase reporter activity (compound concentration: 10 uM) | TEAD-luciferase reporter activity (compound concentration: 2 uM)
NS(=O)(=O)Oc1ccc2c3c(c(=O)oc2c1)CCCCC3 [Irosustat] as listed: – | – | inactive: 3.68
CCOc1ccc(NS(=O)(=O)c2ccc(N)cc2)nn1 [Sulfaethoxypyridazine] as listed: inactive: 0.334 | inactive: 0.319 | inactive: -1.19
CCN1CCN(C(=O)N[C@@H](C(=O)N[C@@H]2C(=O)N3[C@@H]2SC(C)(C)[C@@H]3C(=O)[O-])c2ccccc2)C(=O)C1=O as listed: inactive: -1.12 | inactive: 0.925 | –

(listing goes on)

| SMILES | TEAD-luciferase reporter activity (compound concentration: 200 nM) | TEAD-luciferase reporter activity (compound concentration: 10 uM) | TEAD-luciferase reporter activity (compound concentration: 2 uM) |
| --- | --- | --- | --- |
| Cc1ccc(NC(=O)c2cc(C(F)(F)F)cc(C(F)(F)F)c2)cc1Nc1nccc(-c2cccnc2)n1 | inactive: -0.616 | inactive: -1.22 | inactive: 0.298 |
| O=C(O)CCC/C=C(\c1ccc(CCNS(=O)(=O)c2ccc(Cl)cc2)cc1)c1cccnc1 | inactive: -1.1 | inactive: 3.5 | inactive: -1.44 |
| CS(=O)(=O)c1ccc(-c2cc(Cl)nn2-c2ccccc2)cc1 | inactive: 0.0371 | inactive: 0.833 | inactive: 1.26 |
| c1ccc2c(c1)N=C(N1CCNCC1)c1ccccc1S2 | inactive: -2.52 | inactive: 2.93 | inactive: -0.754 |
| CCC(C/C=C/c1ccccc1)(c1ccccc1)N(C)CC1CC1 (stereo unspecified) [Igmesine hydrochloride] | inactive: -0.438 | inactive: 3.99 | inactive: -0.719 |
| CCOC(=O)n1ccn(C)c1=S [Carbimazole] | – | – | inactive: -1.15 |
| CCOC(=O)n1ccn(C)c1=S | inactive: -0.772 | inactive: -0.000129 | – |
| Cc1c(NC(C)C)c(=O)n(-c2ccccc2)n1C | inactive: -2.77 | inactive: -0.986 | inactive: 1.16 |
| CCOCn1cc(F)c(=O)n(C(=O)c2cccc(C(=O)Oc3nc(OC(=O)c4ccccc4)ccc3C#N)c2)c1=O | inactive: -0.538 | inactive: -0.695 | inactive: -0.19 |
| O=C(O)c1ccccc1OP(=O)(O)O [fosfosal] | inactive: -0.904 | inactive: -0.696 | inactive: -0.925 |
| Nc1nc(N)c2nc(CCc3ccc(C(=O)N[C@@H](CCC(=O)O)C(=O)O)cc3)cnc2n1 [10-Deazaaminopterin] | inactive: -1.79 | inactive: -0.552 | inactive: -1.09 |
| CC(C)(O)c1ccccc1CC[C@@H](SCC1(CC(=O)[O-])CC1)c1cccc(/C=C/c2ccc3sc(Cl)c(Cl)c3n2)c1 | inactive: -1.29 | inactive: 0.113 | inactive: -0.115 |
| COc1ccc(C2CNC(=O)C2)cc1OCCCN1CCC(C(=O)c2ccc(F)cc2)CC1 (stereo unspecified) | inactive: -0.789 | inactive: 1.44 | inactive: 1.85 |
| COc1ccc2c(c1)C=C1Cn3c-2c(C2CCCCC2)c2ccc(cc23)C(=O)NS(=O)(=O)N(C)CCOCCN(C)C1=O | inactive: 0.106 | inactive: -0.706 | inactive: 0.26 |
| CCOC(=O)c1cccnc1 | inactive: -1.79 | inactive: -0.0341 | inactive: -0.0438 |
| CN1CCC(=C2c3ccccc3CSc3sccc32)CC1 | inactive: -1.46 | inactive: -0.648 | inactive: 0.286 |
| CN(C)CCCN1c2ccccc2CCc2ccc(Cl)cc21 [Clomipramine] | inactive: -0.0554 | inactive: 2.65 | inactive: 3.35 |
| CCN1CC(CCN2CCOCC2)C(c2ccccc2)(c2ccccc2)C1=O (stereo unspecified) [doxapram hydrochloride hydrate] | – | – | inactive: 0.159 |
| CCN1CC(CCN2CCOCC2)C(c2ccccc2)(c2ccccc2)C1=O (stereo unspecified) | inactive: 0.0255 | inactive: 0.125 | – |
